We go through two substances from doi:10.1101/2024.08.17.24311658.

By UniProt entry, the sequences of proteins in these tests, tags left out. Where a name states a change or a piece, a line headed by the entry shows the natural chain unless it says otherwise.
UniProt Q06481: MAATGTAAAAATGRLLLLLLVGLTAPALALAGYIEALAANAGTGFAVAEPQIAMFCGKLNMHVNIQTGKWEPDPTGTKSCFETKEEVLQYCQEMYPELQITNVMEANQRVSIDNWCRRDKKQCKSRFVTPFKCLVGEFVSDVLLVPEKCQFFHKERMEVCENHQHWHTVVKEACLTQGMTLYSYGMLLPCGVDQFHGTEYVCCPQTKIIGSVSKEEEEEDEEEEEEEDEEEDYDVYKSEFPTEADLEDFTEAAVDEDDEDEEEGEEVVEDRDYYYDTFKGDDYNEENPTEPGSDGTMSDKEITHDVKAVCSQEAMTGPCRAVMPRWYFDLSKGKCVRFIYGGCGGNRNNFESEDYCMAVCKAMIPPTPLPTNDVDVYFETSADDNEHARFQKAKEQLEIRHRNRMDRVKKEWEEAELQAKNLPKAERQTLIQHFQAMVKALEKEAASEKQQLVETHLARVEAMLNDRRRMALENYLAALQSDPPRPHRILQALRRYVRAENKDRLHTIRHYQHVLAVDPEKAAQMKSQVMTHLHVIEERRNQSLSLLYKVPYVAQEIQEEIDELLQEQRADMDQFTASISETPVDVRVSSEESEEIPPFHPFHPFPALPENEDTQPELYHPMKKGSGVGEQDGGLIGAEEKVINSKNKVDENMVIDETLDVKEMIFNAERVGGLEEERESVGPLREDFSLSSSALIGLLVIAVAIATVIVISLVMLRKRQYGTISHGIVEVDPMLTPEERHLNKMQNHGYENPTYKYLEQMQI
UniProt P05067: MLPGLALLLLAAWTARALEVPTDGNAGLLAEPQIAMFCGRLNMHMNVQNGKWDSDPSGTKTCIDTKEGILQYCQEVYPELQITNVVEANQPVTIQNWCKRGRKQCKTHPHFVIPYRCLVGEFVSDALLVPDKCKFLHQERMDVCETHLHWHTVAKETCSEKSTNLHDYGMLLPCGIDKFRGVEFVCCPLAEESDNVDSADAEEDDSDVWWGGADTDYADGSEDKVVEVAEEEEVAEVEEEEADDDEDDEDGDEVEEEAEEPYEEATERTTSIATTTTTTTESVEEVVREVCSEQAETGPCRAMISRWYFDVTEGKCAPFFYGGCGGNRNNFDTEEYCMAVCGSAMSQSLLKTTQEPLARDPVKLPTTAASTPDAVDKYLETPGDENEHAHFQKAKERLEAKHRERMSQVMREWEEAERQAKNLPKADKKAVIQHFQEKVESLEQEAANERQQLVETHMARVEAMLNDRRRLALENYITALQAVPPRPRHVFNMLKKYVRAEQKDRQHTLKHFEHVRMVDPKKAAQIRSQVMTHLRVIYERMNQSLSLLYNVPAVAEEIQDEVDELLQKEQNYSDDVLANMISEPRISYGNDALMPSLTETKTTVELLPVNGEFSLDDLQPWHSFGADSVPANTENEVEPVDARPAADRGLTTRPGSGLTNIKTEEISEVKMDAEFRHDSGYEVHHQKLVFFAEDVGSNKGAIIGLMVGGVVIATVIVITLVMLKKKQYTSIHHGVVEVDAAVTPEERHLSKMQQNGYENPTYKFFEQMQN

This experiment addresses T1, mCherry-SNX17 (UniProt Q15036).
T1 sequence: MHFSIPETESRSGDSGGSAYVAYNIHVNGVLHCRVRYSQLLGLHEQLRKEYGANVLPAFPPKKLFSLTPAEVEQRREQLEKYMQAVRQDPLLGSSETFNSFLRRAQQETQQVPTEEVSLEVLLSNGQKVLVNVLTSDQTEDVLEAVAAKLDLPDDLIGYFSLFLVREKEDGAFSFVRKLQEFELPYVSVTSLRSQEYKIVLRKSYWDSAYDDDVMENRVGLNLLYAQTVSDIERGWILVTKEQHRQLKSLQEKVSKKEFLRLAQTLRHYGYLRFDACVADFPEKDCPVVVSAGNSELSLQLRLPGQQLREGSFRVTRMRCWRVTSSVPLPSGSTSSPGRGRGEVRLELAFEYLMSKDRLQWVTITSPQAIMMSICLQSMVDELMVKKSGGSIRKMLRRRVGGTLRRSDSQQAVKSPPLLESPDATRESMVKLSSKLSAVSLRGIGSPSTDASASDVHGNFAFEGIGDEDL
Put plainly: co-IP.

No constants are given. Whether binding was seen depends on the method and setting. In cells and extracts the contact can be indirect. A result given as binding can be weak or reduced; the word gives no strength.

In the case of “GFP-transmembrane-cytoplasmic domain of Human-APLP2 (from UniProt Q06481) (domain or fragment)”, the binding entry is recorded as “binds”.

For the substance “GFP-transmembrane-cytoplasmic domain of Human-APP (from UniProt P05067) (domain or fragment)”, the binding entry is listed as “binds”.
